Source: PMC11233663, “ZBP1 condensate formation synergizes Z-NAs recognition and signal transduction” (Cell Death & Disease, 2024)

Chains of the proteins cited; added tags and fusions are not shown. Lines headed by an entry give the natural chain unless they say otherwise; changes in a name come on top.
UniProt Q9H171: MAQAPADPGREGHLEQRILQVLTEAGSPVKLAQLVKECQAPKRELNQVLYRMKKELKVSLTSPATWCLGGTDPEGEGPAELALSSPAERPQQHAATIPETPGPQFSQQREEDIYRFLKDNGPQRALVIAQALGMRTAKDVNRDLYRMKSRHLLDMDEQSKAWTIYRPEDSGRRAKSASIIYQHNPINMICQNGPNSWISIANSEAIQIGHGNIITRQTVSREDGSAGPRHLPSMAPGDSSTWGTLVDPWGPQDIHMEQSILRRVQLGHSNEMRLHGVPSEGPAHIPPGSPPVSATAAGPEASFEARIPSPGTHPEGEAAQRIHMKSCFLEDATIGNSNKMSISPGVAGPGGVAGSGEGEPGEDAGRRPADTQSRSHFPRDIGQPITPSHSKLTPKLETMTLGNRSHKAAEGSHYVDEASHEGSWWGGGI
UniProt Q9Y572: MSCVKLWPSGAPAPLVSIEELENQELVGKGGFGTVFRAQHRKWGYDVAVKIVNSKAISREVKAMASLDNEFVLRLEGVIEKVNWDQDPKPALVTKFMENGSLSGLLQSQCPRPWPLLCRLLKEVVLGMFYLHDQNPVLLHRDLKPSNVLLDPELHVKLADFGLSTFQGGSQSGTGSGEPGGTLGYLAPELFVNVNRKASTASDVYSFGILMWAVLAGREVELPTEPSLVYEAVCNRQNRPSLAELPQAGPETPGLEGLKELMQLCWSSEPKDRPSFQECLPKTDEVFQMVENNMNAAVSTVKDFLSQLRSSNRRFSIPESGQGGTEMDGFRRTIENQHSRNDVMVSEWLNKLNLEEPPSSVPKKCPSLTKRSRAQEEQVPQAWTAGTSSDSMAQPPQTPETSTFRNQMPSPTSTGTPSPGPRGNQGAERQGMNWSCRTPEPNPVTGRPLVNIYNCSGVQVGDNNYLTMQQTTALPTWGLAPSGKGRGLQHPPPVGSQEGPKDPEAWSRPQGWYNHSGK

Biological target: GFP-tagged ZBP1 with mutations in IQIG (RHIM1 mutation) (human) (UniProt Q9H171)
Test: co-IP; HT-29 cell lysates immunoprecipitated with an anti-GFP antibody, immunoblotted for RIP3

In the case of “endogenous RIP3 (from UniProt Q9Y572 1-518)”, the binding is reported as “binds”.

Results are given in words; binding and its absence hold for the method and conditions named. In cells and extracts the contact can be indirect. Binding calls can cover weak binding; strength is not graded here.
